Results reported in US5321123A, “Protein S polypeptides and anti-peptide antibodies that inhibit protein S binding to C4B binding protein, diagnostic systems and therapeutic methods” (The Scripps Research Institute, priority 1992, dated 1994).
Not every detail of the peptide structures is certain; ends, links or a residue may be inferred. For some assays here: For at least one compound, name, drawing or mass did not settle the structure. Some entries repeat one wording, which the source may state once for all of them. Peptide text beside a SMILES is read from it.

Tests used:
[1] = system: anti-PS(420-434) antibody; assay: Epitope mapping ELISA of immunopurified anti-PS(420-434) on coated peptides; assay type: binding, rabbit; parameters: key to the marks not given beside the values; settings: anti-PS(420-434) 0-5 μg/ml IgG on peptide-coated plates
PS:C4BP complex = target: T1, PS:C4BP complex (Homo sapiens, UniProt P04003+P20851); assay: Peptide Inhibition Assay: b-PS binding to C4BP in solid-phase
T1 construct: Purified human C4BP was obtained from 5 liters (l) of human citrated plasma; from tissue; host or cells: human citrated plasma (C4BP); protein S by the method of Schwarz et al
T1 sequence (P04003 49-597): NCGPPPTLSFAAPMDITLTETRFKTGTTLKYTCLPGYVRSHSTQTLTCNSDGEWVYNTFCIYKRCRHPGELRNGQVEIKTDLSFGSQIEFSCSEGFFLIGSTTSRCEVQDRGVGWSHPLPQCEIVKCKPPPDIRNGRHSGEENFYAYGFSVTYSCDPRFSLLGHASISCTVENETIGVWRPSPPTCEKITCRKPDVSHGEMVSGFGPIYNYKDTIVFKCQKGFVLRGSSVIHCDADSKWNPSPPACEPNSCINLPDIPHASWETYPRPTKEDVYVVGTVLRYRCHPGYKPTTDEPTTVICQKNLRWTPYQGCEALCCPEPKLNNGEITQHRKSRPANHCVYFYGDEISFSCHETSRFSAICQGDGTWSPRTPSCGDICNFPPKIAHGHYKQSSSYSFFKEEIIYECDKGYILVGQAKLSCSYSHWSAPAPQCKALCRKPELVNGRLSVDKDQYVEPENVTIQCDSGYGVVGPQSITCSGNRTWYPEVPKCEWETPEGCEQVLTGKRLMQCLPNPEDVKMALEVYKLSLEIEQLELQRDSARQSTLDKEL
T1 sequence (P20851 18-252): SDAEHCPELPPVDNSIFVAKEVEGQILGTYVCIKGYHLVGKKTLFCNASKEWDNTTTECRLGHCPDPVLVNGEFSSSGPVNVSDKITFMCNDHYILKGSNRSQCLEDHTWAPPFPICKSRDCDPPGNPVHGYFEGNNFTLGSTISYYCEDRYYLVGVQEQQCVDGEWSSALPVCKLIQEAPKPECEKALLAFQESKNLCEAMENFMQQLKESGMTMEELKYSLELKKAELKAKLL
Description: Each of the peptides produced as described in Example 1 and listed in Table 1 was analyzed for its ability to inhibit the binding of native protein S in liquid-phase to C4BP in solid-phase.
Microtiter wells of a 96 well plate were coated with 50 μl of 10 μg/ml purified C4BP in carbonate buffer (0.02M Na2 CO3, pH 9.0, 0.02% Na-Azide). After blocking with 10% BSA in TBS, 50 μl of different concentrations of peptides diluted in washing buffer (TBS, 0.2% BSA, 5mM CaCl, 0.02% Tween 20) were separately admixed to C4BP-coated wells. After 2 hours at room temperature, 50 μl of a solution of biotinylated protein S, were admixed to each well to form a second binding admixture having a final concentration of 2 μg/ml. The plate was agitated and the samples Were incubated 1 hour at room temperature. The samples were discarded and the wells were washed 3 times with washing buffer. To each well, 50 μl of strepavidin-alkaline-phosphatase (1 μg/ml washing buffer) were admixed and allowed to incubate for 30 minutes at room temperature. The strepavidin-alkaline-phosphatase was then discarded and the wells were washed 6 times with washing buffer. The resulting optical densities of the reaction solutions were read as described before in Example 2C.
Results of the assay are reported as percent inhibition of C4BP binding. Percent of inhibition of C4BP binding is defined as: […]
where I is expressed as a percent; and where 100%=delta/min of the amount of b-PS which specifically bound to C4BP-coated wells in the absence of any competing PS-peptide; and where deltaT =the change in absorbance (405 nm) in the presence of competing PS-peptide; and where deltaC =the change in absorbance (405 nm) in the absence of competing PS-peptide.

SMILES	Binding Affinity [1]	inhibition of PS:C4BP complex formation relative to PS-peptides from other regions of protein S (PS:C4BP complex)
CC[C@H](C)[C@H](NC(=O)CNC(=O)[C@@H](N)CO)C(=O)N[C@@H](CCCCN)C(=O)N[C@@H](CCC(=O)O)C(=O)N[C@H](C(=O)N[C@H](C(=O)N[C@@H](CCC(N)=O)C(=O)N[C@@H](CCC(=O)O)C(=O)N[C@@H](CCCCN)C(=O)N[C@@H](CCC(N)=O)C(=O)N[C@@H](CC(N)=O)C(=O)N[C@@H](CCCCN)C(=O)N[C@@H](Cc1c[nH]cn1)C(=O)N[C@@H](CO)C(N)=O)[C@@H](C)CC)[C@@H](C)CC [PSP-12*, SGIKEIIQEKQNKHS] (H-SGIKEIIQEKQNKHS-NH2)	++	–
CC[C@H](C)[C@H](NC(=O)CNC(=O)[C@@H](N)CO)C(=O)N[C@@H](CCCCN)C(=O)N[C@@H](CCC(=O)O)C(=O)N[C@H](C(=O)N[C@H](C(=O)N[C@@H](CCC(N)=O)C(=O)N[C@@H](CCC(=O)O)C(=O)N[C@@H](CCCCN)C(=O)N[C@@H](CCC(N)=O)C(=O)N[C@@H](CC(N)=O)C(=O)N[C@@H](CCCCN)C(=O)N[C@@H](Cc1c[nH]cn1)C(=O)N[C@@H](CS)C(N)=O)[C@@H](C)CC)[C@@H](C)CC [PSP-12, SGIKEIIQEKQNKHC] (H-SGIKEIIQEKQNKHC-NH2; N-terminus assumed)	+++	–
CC(C)C[C@H](NC(=O)[C@H](Cc1ccc(O)cc1)NC(=O)[C@H](CCCCN)NC(=O)[C@@H]1CCCN1C(=O)[C@H](Cc1ccc(O)cc1)NC(=O)[C@H](Cc1ccccc1)NC(=O)[C@H](Cc1ccc(O)cc1)NC(=O)[C@H](CC(=O)O)NC(=O)[C@@H](NC(=O)[C@H](CCC(=O)O)NC(=O)[C@@H]1CCCN1C(=O)[C@H](CC(=O)O)NC(=O)[C@H](CC(N)=O)NC(=O)[C@@H](N)CCC(=O)O)[C@@H](C)O)C(=O)N[C@H](C(N)=O)C(C)C [PSP-32, ENDPETDYFYPKYLV] (H-ENDPETDYFYPKYLV-NH2)	–	strong inhibition
CC[C@H](C)[C@H](NC(=O)[C@H](CCCCN)NC(=O)[C@@H](NC(=O)[C@H](CO)NC(=O)[C@@H](NC(=O)[C@H](CO)NC(=O)[C@H](Cc1c[nH]cn1)NC(=O)[C@H](CCC(=O)O)NC(=O)[C@H](CC(C)C)NC(=O)[C@H](CCC(=O)O)NC(=O)[C@H](CCC(=O)O)NC(=O)[C@@H](N)C(C)C)[C@@H](C)CC)[C@@H](C)CC)C(=O)N[C@@H](C)C(=O)N[C@@H](CCCCN)C(=O)N[C@@H](CCC(=O)O)C(N)=O [PSP-347, VEELEHSISIKIAKE] (H-VEELEHSISIKIAKE-NH2)	–	strong inhibition
CC[C@H](C)[C@H](NC(=O)CNC(=O)[C@H](CO)NC(=O)[C@H](C)NC(=O)CNC(=O)[C@H](CCC(N)=O)NC(=O)[C@H](CCCCN)NC(=O)[C@H](CCSC)NC(=O)[C@H](CC(C)C)NC(=O)[C@H](CC(N)=O)NC(=O)[C@H](Cc1c[nH]c2ccccc12)NC(=O)[C@H](CO)NC(=O)[C@H](CCCNC(=N)N)NC(=O)[C@@H](NC(=O)[C@@H](N)CC(=O)O)[C@@H](C)CC)C(N)=O [PSP-418*, DIRSWNLMKQGASGI] (H-DIRSWNLMKQGASGI-NH2)	–	strong inhibition
